{"source": "PubChem BioAssay AID504764 (Drosophila RNAi Screening Center, 2011)", "aim": "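Genes whose knock-down alters Notch-dependent transcription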 (primary screen)", "system": "Drosophila Kc167 cells", "knock-down reagent": "long dsRNA against Drosophila genes", "time to read-out": "about 5 days (4 days dsRNA, then 24 h after transfection)", "conditions": "transfection of constitutively active membrane-tethered Notch lacking the extracellular domain, read 24 h later", "detection": "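Firefly luciferase from an E(spl)m3 reporter with active Notch, plus control-promoter and uninduced reporter wells for normalisation; unnormalised counts, duplicate wells a and b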", "direction": "induced reporter light, run 1, well a and induced reporter light, run 1, well b: higher = more light from the Notch target reporter with active Notch; control promoter light, run 1, well a and control promoter light, run 1, well b: higher = more light from the viral control promoter (cell number, transfection, viability); uninduced reporter light, run 1, well a: higher = more light from the Notch target reporter without active Notch", "hit rule": "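Hit if the duplicate-averaged log2 ratio of induced to control-promoter light gives a plate-wise z beyond ±2, or induced to uninduced beyond ±1.8; weak-control or discordant-duplicate wells dropped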", "meaning of the calls": "active = modifier hit (raised or lowered Notch signal); inactive = not a hit", "note": "In all, the deposit lists about 22,000 reagents; this is a random part of those that have a named target and a result. In the full data, 403 (1.9%) got an active call. 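Unnormalised raw counts per well; ratio z-scores behind the hit calls and whether each hit raises or lowers signal are not deposited.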 A number with no mark means an inactive call. The numbers tell different reagents against one gene apart. Not stated in the record: the amount of reagent."}
{"target": "cpo", "reagent": 1, "induced reporter light, run 1, well a": 81025, "induced reporter light, run 1, well b": 71085, "control promoter light, run 1, well a": 1.12e5, "control promoter light, run 1, well b": 78390, "uninduced reporter light, run 1, well a": 12165}
{"target": "ZAP3", "reagent": 1, "induced reporter light, run 1, well a": 1.14e5, "induced reporter light, run 1, well b": 1.21e5, "control promoter light, run 1, well a": 1.36e5, "control promoter light, run 1, well b": 1.51e5, "uninduced reporter light, run 1, well a": 8860}
{"target": "ZAP3", "reagent": 2, "induced reporter light, run 1, well a": 1.21e5, "induced reporter light, run 1, well b": 1.17e5, "control promoter light, run 1, well a": 2.24e5, "control promoter light, run 1, well b": 2.50e5, "uninduced reporter light, run 1, well a": 8125}
{"target": "ZAP3", "reagent": 3, "induced reporter light, run 1, well a": 1.29e5, "induced reporter light, run 1, well b": 1.22e5, "control promoter light, run 1, well a": 2.58e5, "control promoter light, run 1, well b": 1.93e5, "uninduced reporter light, run 1, well a": 8020}
{"target": "PH4alphaSG1", "reagent": 1, "induced reporter light, run 1, well a": 1.61e5, "induced reporter light, run 1, well b": 1.42e5, "control promoter light, run 1, well a": 1.88e5, "control promoter light, run 1, well b": 1.53e5, "uninduced reporter light, run 1, well a": 11645}
{"target": "Dok", "reagent": 1, "induced reporter light, run 1, well a": 41040, "induced reporter light, run 1, well b": 47445, "control promoter light, run 1, well a": 54615, "control promoter light, run 1, well b": 64780, "uninduced reporter light, run 1, well a": 9875}
{"target": "CG17134", "reagent": 1, "induced reporter light, run 1, well a": 1.39e5, "induced reporter light, run 1, well b": 1.53e5, "control promoter light, run 1, well a": 88135, "control promoter light, run 1, well b": 96360, "uninduced reporter light, run 1, well a": 19895}
{"target": "ninaA", "reagent": 1, "induced reporter light, run 1, well a": 2.10e5, "induced reporter light, run 1, well b": 2.07e5, "control promoter light, run 1, well a": 2.42e5, "control promoter light, run 1, well b": 2.58e5, "uninduced reporter light, run 1, well a": 17770}
{"target": "CG4752", "reagent": 1, "induced reporter light, run 1, well a": 2.48e5, "induced reporter light, run 1, well b": 2.28e5, "control promoter light, run 1, well a": 2.07e5, "control promoter light, run 1, well b": 2.21e5, "uninduced reporter light, run 1, well a": 17460}
{"target": "CG34433", "reagent": 1, "induced reporter light, run 1, well a": 1.28e5, "induced reporter light, run 1, well b": 1.22e5, "control promoter light, run 1, well a": 1.89e5, "control promoter light, run 1, well b": 2.01e5, "uninduced reporter light, run 1, well a": 12605}
{"target": "Rrp46", "reagent": 1, "induced reporter light, run 1, well a": 73945, "induced reporter light, run 1, well b": 68930, "control promoter light, run 1, well a": 81075, "control promoter light, run 1, well b": 61720, "uninduced reporter light, run 1, well a": 5255}
{"target": "PolE1", "reagent": 1, "induced reporter light, run 1, well a": 6920, "induced reporter light, run 1, well b": 5660, "control promoter light, run 1, well a": 6565, "control promoter light, run 1, well b": 9030, "uninduced reporter light, run 1, well a": 665}

Just “uninduced reporter light, run 1, well a”, for 2 of the entries above:
ninaA: 17770
CG4752: 17460
